Experimental data: US20260109994A1, “HERBICIDE-RESISTANT GENES FOR MITOCHONDRIAL TRANSFORMATION” (Napigen, Inc., priority 2023, published 2026)
At least one compound was matched to its structure with a doubt left.

Test system: wild-type rice callus
Experiment: Effect of disulfiram on inhibition of wild-type rice callus growth by oligomycin
Assay type: cell-based
Settings: ND2 medium, 0.5% sucrose, 100 μM disulfiram, 1 mg/L oligomycin, day 14

Structure (SMILES): CCN(CC)C(=S)SSC(=S)N(CC)CC [disulfiram]
- effect of disulfiram on inhibition of wild-type rice callus growth by oligomycin: can increase the ability of oligomycin to inhibit growth of wild-type rice callus
